Results are given in words; binding and its absence hold for the method and conditions named. Binding seen in cells or lysates may run through a third protein. Here binding means that the protein was enriched with, or labelled near, the bait; the list need not be complete.
Molecular target: T1, native mouse ThrRS-L (mThrRS-L) (mouse (endogenous in muscle tissue and NIH/3T3)) (UniProt Q8BLY2)
T1 sequence: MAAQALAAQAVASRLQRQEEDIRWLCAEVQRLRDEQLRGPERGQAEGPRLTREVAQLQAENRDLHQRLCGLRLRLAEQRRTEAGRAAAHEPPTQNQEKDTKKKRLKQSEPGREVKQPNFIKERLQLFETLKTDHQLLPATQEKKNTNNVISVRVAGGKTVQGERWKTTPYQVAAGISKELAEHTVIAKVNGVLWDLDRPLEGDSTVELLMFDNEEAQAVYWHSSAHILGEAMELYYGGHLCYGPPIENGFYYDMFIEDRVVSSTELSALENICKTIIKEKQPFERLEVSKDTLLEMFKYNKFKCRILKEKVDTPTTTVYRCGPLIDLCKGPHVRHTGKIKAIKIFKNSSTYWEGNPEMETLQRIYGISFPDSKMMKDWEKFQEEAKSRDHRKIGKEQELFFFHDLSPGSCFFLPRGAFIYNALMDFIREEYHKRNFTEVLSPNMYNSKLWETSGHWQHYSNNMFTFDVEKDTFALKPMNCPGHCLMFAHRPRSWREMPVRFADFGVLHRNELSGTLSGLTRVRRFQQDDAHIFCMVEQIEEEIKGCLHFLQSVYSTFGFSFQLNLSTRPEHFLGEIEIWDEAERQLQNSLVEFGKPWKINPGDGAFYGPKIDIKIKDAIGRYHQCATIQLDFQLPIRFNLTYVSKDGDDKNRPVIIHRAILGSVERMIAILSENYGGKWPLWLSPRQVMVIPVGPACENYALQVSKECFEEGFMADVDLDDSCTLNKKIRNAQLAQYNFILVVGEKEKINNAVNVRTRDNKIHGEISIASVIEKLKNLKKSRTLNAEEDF
Assay: affinity purification with mass spectrometry; extract of mouse muscle tissue, IP with anti-mThrRS-L antibodies; SDS-PAGE, silver staining, bands cut out for MS

Protein sequences, listed by entry. Tags and fused reporters are not part of them.
UniProt Q8CGC7: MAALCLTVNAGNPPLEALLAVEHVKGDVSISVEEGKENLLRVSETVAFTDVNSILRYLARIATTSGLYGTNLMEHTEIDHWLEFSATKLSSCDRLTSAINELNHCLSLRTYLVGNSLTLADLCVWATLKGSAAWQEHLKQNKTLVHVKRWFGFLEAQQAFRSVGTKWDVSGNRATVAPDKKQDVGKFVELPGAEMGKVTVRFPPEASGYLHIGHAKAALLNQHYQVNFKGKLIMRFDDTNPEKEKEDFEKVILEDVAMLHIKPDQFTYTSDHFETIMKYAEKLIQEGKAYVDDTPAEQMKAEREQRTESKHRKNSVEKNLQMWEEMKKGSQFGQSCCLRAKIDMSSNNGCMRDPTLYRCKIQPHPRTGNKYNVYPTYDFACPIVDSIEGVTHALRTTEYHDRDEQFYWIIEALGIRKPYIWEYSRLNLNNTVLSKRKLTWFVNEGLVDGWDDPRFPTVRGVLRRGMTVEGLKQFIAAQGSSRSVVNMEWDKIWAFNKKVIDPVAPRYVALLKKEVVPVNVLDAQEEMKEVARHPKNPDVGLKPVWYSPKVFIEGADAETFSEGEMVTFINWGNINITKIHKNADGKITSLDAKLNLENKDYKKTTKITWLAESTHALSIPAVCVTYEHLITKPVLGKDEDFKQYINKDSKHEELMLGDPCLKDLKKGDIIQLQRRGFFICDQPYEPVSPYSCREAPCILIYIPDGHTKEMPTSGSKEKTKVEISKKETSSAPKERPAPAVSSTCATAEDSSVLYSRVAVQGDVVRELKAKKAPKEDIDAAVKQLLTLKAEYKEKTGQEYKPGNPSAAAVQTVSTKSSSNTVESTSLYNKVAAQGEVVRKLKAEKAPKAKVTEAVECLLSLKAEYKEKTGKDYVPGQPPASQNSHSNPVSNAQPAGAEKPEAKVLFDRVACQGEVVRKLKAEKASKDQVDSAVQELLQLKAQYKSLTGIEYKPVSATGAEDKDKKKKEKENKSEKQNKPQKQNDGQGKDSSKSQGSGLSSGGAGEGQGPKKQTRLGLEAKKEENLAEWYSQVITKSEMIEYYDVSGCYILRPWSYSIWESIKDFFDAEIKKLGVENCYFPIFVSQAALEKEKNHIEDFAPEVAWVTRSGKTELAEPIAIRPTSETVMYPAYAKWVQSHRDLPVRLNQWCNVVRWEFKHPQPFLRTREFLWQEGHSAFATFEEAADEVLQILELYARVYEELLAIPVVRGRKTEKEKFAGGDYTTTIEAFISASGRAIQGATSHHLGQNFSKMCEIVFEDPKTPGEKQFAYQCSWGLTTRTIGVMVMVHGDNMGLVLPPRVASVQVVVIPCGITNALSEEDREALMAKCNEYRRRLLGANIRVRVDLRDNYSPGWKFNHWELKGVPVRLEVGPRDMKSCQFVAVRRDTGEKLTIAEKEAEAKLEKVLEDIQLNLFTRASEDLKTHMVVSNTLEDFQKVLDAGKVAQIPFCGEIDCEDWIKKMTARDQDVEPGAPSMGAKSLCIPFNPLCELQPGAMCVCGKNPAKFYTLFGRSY
UniProt Q8BMJ2: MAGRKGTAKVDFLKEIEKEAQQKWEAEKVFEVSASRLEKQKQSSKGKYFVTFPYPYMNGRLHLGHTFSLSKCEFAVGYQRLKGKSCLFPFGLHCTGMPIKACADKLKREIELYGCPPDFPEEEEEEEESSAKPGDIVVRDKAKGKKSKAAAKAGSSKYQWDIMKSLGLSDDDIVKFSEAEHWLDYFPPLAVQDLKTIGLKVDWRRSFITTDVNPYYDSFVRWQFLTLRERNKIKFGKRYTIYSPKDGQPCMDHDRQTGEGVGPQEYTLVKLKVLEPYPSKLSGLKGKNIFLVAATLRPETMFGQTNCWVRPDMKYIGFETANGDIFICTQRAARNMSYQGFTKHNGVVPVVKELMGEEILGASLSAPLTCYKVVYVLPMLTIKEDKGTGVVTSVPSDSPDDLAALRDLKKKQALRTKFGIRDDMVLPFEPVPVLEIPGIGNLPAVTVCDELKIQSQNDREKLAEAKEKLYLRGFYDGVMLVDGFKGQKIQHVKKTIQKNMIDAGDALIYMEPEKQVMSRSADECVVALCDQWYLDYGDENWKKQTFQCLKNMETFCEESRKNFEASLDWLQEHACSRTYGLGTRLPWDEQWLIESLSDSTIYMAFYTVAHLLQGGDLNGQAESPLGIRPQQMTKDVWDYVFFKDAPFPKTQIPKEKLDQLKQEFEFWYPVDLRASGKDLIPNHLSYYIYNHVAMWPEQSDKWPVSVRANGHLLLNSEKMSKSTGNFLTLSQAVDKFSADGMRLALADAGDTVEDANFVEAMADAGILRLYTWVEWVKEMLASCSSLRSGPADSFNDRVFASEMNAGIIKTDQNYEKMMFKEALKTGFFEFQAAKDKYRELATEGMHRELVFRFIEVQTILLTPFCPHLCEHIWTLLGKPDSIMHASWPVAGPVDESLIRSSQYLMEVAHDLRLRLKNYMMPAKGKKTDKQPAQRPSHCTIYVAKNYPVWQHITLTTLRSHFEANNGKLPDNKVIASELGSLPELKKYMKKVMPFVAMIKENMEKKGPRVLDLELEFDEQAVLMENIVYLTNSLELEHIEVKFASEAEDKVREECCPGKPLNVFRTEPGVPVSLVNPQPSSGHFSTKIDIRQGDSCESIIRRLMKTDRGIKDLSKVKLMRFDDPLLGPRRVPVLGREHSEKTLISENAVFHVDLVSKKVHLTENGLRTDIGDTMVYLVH
UniProt Q99MN1: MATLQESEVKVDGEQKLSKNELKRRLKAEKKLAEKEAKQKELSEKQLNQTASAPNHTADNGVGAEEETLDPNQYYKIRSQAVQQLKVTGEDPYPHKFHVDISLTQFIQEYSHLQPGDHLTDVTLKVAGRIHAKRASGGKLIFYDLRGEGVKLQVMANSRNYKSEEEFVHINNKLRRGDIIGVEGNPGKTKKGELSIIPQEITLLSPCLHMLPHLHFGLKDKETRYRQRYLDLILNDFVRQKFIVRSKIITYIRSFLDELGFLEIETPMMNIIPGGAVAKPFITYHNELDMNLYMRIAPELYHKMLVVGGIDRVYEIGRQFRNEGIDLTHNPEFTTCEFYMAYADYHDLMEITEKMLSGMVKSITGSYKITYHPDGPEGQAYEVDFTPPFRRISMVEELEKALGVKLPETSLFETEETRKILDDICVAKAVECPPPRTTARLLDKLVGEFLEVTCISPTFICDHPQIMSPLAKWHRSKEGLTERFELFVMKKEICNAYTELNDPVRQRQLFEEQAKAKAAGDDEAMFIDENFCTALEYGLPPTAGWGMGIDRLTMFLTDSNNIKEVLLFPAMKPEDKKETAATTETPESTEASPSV
UniProt Q8R429: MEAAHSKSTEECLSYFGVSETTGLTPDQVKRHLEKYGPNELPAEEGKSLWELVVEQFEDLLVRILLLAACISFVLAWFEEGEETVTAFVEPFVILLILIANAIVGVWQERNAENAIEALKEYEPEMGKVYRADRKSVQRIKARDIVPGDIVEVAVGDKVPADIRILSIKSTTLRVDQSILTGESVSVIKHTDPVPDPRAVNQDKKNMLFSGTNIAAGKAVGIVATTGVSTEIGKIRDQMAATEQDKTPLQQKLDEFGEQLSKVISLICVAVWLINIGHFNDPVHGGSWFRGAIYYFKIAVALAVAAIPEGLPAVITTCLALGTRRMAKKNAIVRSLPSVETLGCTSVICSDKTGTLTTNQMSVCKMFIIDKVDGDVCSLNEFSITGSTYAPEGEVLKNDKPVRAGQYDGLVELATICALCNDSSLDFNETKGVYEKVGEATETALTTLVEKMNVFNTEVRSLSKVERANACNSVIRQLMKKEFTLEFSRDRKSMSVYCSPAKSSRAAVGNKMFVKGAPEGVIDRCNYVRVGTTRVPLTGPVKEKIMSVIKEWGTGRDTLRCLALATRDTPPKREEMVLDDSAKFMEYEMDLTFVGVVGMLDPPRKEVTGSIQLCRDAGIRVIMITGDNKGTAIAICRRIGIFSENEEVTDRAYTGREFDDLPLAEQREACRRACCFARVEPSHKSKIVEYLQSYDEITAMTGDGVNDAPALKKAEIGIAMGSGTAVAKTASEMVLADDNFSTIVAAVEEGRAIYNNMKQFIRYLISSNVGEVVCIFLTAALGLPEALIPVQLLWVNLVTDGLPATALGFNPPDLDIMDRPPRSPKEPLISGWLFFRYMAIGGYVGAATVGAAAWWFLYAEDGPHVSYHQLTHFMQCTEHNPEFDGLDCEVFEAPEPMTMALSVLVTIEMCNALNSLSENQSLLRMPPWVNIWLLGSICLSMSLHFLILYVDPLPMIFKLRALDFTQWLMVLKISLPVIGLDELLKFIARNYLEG

Row | Substance | binding
1 | mouse GluProRS, endogenous in muscle tissue (from UniProt Q8CGC7 1-1512) (enzyme) | binds
2 | mouse LeuRS, endogenous in muscle tissue (from UniProt Q8BMJ2 1-1178) (enzyme) | binds
3 | mouse LysRS, endogenous in muscle tissue (from UniProt Q99MN1 1-595) (enzyme) | binds
4 | Atp2a1, endogenous in mouse muscle tissue (from UniProt Q8R429 1-994) | binds
